According to PubChem BioAssay AID652054 (National Center for Advancing Translational Sciences (NCATS), 2013):
About 9,100 (2.5%) of roughly 360,000 compounds were called active. The shares of active, inactive and inconclusive entries below differ from those in the screen. Cut-off read from the data, not from the text of the source: active = max response below about -50%; inconclusive = no clear call, values can overlap the other calls; inactive = above that.
% is set by controls: 0 for no effect and ±100 for the full control effect.

Protein sequences, listed by entry. Tags and fused reporters are not part of them.
UniProt P35462, whole entry, looked up: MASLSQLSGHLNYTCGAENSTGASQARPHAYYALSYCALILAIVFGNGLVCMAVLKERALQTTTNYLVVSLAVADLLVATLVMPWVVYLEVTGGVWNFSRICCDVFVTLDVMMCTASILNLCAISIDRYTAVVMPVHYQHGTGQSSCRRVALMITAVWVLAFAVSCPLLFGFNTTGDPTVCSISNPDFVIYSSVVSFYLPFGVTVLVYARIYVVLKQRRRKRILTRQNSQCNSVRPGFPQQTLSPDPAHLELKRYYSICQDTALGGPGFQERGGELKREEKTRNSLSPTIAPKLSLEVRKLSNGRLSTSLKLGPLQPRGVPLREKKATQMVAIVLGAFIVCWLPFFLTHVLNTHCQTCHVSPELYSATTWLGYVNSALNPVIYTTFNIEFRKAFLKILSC

What follows are compounds tested against D(3) dopamine receptor (Homo sapiens) (UniProt P35462) (assay: qHTS of D3 Dopamine Receptor Antagonist: qHTS). Conditions: D3R cells, DiscoveRx beta-arrestin luminescence, antagonist mode; stronger effect = lower value.
Outline: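 Cells expressing the human receptor were seeded at 1500 cells/well, incubated overnight at 37 degrees C in 5% CO2, then exposed to library compounds with dopamine controls for 90 minutes at 37 degrees C before luminescent detection.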
With `COc1ccc(NS(=O)(=O)c2cccc(C(=O)NCC(c3ccccc3)N(C)C)c2)cc1` (stereo unspecified) the max response, negative = inhibition was inconclusive: -40.4%.
`COc1ccc(C(CNC(=O)C(C)Oc2ccc(Br)cc2)N2CCCCC2)cc1` (stereo unspecified) was tested, and the max response, negative = inhibition was active: -92.2%.
For `CN(CCN1CCc2ccccc2C1)Cc1nc(Cc2ccccc2F)no1`, the max response, negative = inhibition was active: -59.4%.
For `Cc1ccc(N2C(=O)CC(N3CCN(S(=O)(=O)c4ccccc4)CC3)C2=O)c(C)c1` (stereo unspecified), the max response, negative = inhibition was inconclusive: -44.9%.
For `CCOC(=O)C1CCN(C(=O)CS(=O)Cc2nc(-c3ccc(C)cc3)oc2C)CC1` (stereo unspecified), the max response, negative = inhibition was inconclusive: -47.1%.
With `Cc1cc(C)c2cccc(NC(=S)NC(=O)c3ccccc3)c2n1` the max response, negative = inhibition was inactive: -7.22%.
`COC(=O)Cc1c(O)ccn(Cc2cccc(C(F)(F)F)c2)c1=O` was tested, and the max response, negative = inhibition was active: -71.6%.
In the case of `Cc1nc(C(=O)N2CCCC(C(=O)c3cccc(OC(C)C)c3)C2)cs1` (stereo unspecified), the max response, negative = inhibition is reported as inactive: 14.4%.
With `CCc1ccc(Cn2nnc(C(=O)Nc3cccc(C)c3)c2N)cc1` the max response, negative = inhibition was inconclusive: -45.7%.
With `N#Cc1cc2nc(O)c(O)nc2cc1[N+](=O)[O-]` the max response, negative = inhibition was inconclusive: -40.5%.
In the case of `CCc1nc2c(OCCC3CCCCC3)cccn2c1N(C=O)Cc1ccccc1`, the max response, negative = inhibition is reported as inactive: -5.06%.
For `CCOc1ccc2c(c1)-c1c(ssc1=S)C(C)(C)N2`, the max response, negative = inhibition was active: -74.4%.
With `Cc1cc(-c2ccc(C)c(S(=O)(=O)NCCCN3CCN(c4ccccc4F)CC3)c2)on1` the max response, negative = inhibition was active: -68.5%.
With `c1csc(CNc2nc3ccccc3n2CCN2CCOCC2)c1` the max response, negative = inhibition was inconclusive: -30.9%.
With `CCc1ccc(NC(=S)NC2CCN(Cc3ccccc3)CC2)cc1` the max response, negative = inhibition was inactive: -29.2%.
With `O=c1[nH][nH]c(C(F)(F)F)c1C=Nc1ccccc1Cl` the max response, negative = inhibition was inconclusive: -45%.
In the case of `O=C(NCCN1CCC(n2c(=O)[nH]c3ccccc32)CC1)c1ccccc1`, the max response, negative = inhibition is reported as active: -113%.
With `Cc1ccc(C(=O)N/N=C/c2cn(Cc3ccccc3)c3ccccc23)cn1` the max response, negative = inhibition was inconclusive: -31.9%.
With `CCOC(=O)C1=CCC(c2ccc(Cl)cc2)N(S(=O)(=O)c2ccc(C)cc2)C1` (stereo unspecified) the max response, negative = inhibition was inconclusive: -40.3%.
For `CCn1c(C)nc2cc(C(=O)NNC(=S)Nc3ccc(Cl)cc3Cl)ccc21`, the max response, negative = inhibition was inconclusive: -40.2%.
In the case of `CCCCCC/C(C=O)=C\c1ccccc1`, the max response, negative = inhibition is reported as inactive: 17.2%.
`CN(C[C@H](CC1CCCCC1)N(C[C@H](Cc1ccccc1)N(CCc1ccccc1)N=O)N=O)N=O` was tested, and the max response, negative = inhibition was inconclusive: -32.6%.
`Cc1cc(C)cc(NC(=O)Nc2cc(S(=O)(=O)N(C)C)ccc2C)c1` was tested, and the max response, negative = inhibition was inconclusive: -32.3%.
In the case of `CCCNC(=O)c1ccc(N2CCC3(CC2)CC(c2cccc(Br)c2)=NO3)c(NC(=O)c2ccc(Cl)c([N+](=O)[O-])c2)c1`, the max response, negative = inhibition is reported as inconclusive: -47.3%.
With `CNC(=O)COC(=O)c1ccccc1C(=O)c1ccc(Cl)c([N+](=O)[O-])c1` the max response, negative = inhibition was active: -61.1%.
`Cc1c(Br)c([N+](=O)[O-])nn1CCCC(=O)Nc1sc2c(c1C#N)CCC2` was tested, and the max response, negative = inhibition was inconclusive: -30.1%.
For `C=CCn1c(SCCN2CCCC2)nc2c([nH]c3ccccc32)c1=O`, the max response, negative = inhibition was inconclusive: -31.8%.
In the case of `O=C(Nc1cnn(Cc2ccc(Cl)cc2Cl)c1)c1noc2c1CCCC2`, the max response, negative = inhibition is reported as inactive: -5.11%.
In the case of `Cc1cccc(CN2CCN(CC(=O)NCCCN3CCN(c4ccc(F)cc4)CC3)C2=O)c1`, the max response, negative = inhibition is reported as inconclusive: -48.5%.
For `COCCn1c(COc2ccc(C)cc2)nc2ccccc21`, the max response, negative = inhibition was inconclusive: -32.5%.
With `CC(C)(C)C(=O)COC(=O)C1CC(=O)N(c2ccccc2)C1` (stereo unspecified) the max response, negative = inhibition was inconclusive: -44.3%.
With `CCOC(=O)Cc1csc(NC(=O)c2csc(C)c2)n1` the max response, negative = inhibition was inactive: 22%.
In the case of `CCCCCCn1c(CN2CCN(C(=O)OCC)CC2)nc2c1c(=O)n(C)c(=O)n2C`, the max response, negative = inhibition is reported as inactive: -13.6%.
With `Cc1ccc(Nc2cc(-n3nc(C)cc3C)ncn2)c(C)c1` the max response, negative = inhibition was inactive: 8.15%.
`O=C(O)c1ccc(/C=N/Nc2nc3ccccc3[nH]2)cc1` was tested, and the max response, negative = inhibition was inactive: -9.94%.
For `CC1=Nc2cc(Cl)ccc2Oc2ccccc21`, the max response, negative = inhibition was inactive: 2.99%.
For `O=[N+]([O-])c1ccc(O)c(C=Nc2cccc3ccccc23)c1`, the max response, negative = inhibition was inactive: 0%.
In the case of `COC(=O)[C@H]1[C@H]2C[C@@H]3c4[nH]c5cc(OC)ccc5c4CCN3C[C@H]2C[C@@H](OC(=O)c2ccc(N)cc2)[C@@H]1OC`, the max response, negative = inhibition is reported as inactive: 21.9%.
In the case of `COc1cccc(NC(=O)Nc2ccc(CC(=O)O)cc2)c1`, the max response, negative = inhibition is reported as inactive: -6.28%.
`S=C(NCc1ccccc1)Nc1nccs1` was tested, and the max response, negative = inhibition was inconclusive: -34.2%.
With `CCn1nccc1NC(=O)c1csc([C@@H]2O[C@H](CO)[C@H](O)[C@H](O)[C@H]2O)n1` the max response, negative = inhibition was inconclusive: -33%.
With `CCOc1ccc(-c2nnc(NC(=O)Cc3ccc(OC)cc3)o2)cc1` the max response, negative = inhibition was inactive: -10.2%.
With `CCCCc1c(CCC)c(=N)c2ccccc2n1C` the max response, negative = inhibition was active: -72.8%.
With `O=C(NCc1cccc(C(F)(F)F)c1)c1[nH]c(C(F)(F)F)nc1-c1ccccc1` the max response, negative = inhibition was active: -63%.
`Cc1cc(C)n(Cc2ccc(C(=O)Nc3cccc(Br)c3)o2)n1` was tested, and the max response, negative = inhibition was inactive: -16.2%.
In the case of `Cn1c(-c2ccco2)n[nH]c1=S`, the max response, negative = inhibition is reported as inconclusive: -33.5%.
For `O=Cc1c[nH]c2ccc(OCc3ccccc3)cc12`, the max response, negative = inhibition was inconclusive: -30.8%.
In the case of `O=C(N/N=C/c1c[nH]c2ccccc12)C1CC(=O)N(c2ccccc2)C1` (stereo unspecified), the max response, negative = inhibition is reported as inactive: -10.3%.
For `Cc1cc(C(=O)N2CCc3ccccc3C2)on1`, the max response, negative = inhibition was inactive: 5.81%.
For `Cc1c(-c2ccccc2)nc2ccccc2c1C(=O)Oc1ccc([N+](=O)[O-])cc1`, the max response, negative = inhibition was inactive: 0%.
`COCCn1nnnc1C(C(C)C)N1CCC(Cc2ccccc2)CC1` (stereo unspecified) was tested, and the max response, negative = inhibition was inconclusive: -39.4%.
`CC(=O)c1cccc(NC(=S)NC(=O)c2cccc(Cl)c2)c1` was tested, and the max response, negative = inhibition was inconclusive: -33.1%.
With `Cc1ccccc1Cc1c(C)nc2c(C(=O)NCc3ccc4c(c3)OCO4)cnn2c1C` the max response, negative = inhibition was active: -81.3%.
In the case of `COc1ccc([C@H]2CC(=O)C[C@@H](CCn3cc(-c4nccn4C)nn3)O2)cc1`, the max response, negative = inhibition is reported as inactive: 6.5%.
For `CC1CCN(CCn2c(=S)[nH]c3cc4c(cc3c2=O)OCO4)CC1`, the max response, negative = inhibition was inconclusive: -36.3%.
With `COc1ccc(CN2C(=O)C(Cc3ccccc3)Nc3ncnc(N4CCCCC4)c32)cc1` (stereo unspecified) the max response, negative = inhibition was active: -53.1%.
